The supplement of paper PMC12823440, “Inhibitors supercharge kinase turnover through native proteolytic circuits” (Nature, 2025)
Structures can show the parent of a compound that is named as a salt. Some of the results follow. Hit calls seldom repeat between salt and free forms of one compound.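 In K562 cells expressing nanoluciferase-fused kinases, luminescence was recorded at 4 h intervals between 2 and 18 h, normalized as percent of control with DMSO at 100% and a positive control at 0%. A significant (2 sigma) signal drop marks a time point as decreased. The authors' rule for a hit is not shown and takes in more than the number of time points.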

By UniProt entry, the sequences of proteins in these tests, tags left out. Where a name states a change or a piece, a line headed by the entry shows the natural chain unless it says otherwise.
UniProt O75460: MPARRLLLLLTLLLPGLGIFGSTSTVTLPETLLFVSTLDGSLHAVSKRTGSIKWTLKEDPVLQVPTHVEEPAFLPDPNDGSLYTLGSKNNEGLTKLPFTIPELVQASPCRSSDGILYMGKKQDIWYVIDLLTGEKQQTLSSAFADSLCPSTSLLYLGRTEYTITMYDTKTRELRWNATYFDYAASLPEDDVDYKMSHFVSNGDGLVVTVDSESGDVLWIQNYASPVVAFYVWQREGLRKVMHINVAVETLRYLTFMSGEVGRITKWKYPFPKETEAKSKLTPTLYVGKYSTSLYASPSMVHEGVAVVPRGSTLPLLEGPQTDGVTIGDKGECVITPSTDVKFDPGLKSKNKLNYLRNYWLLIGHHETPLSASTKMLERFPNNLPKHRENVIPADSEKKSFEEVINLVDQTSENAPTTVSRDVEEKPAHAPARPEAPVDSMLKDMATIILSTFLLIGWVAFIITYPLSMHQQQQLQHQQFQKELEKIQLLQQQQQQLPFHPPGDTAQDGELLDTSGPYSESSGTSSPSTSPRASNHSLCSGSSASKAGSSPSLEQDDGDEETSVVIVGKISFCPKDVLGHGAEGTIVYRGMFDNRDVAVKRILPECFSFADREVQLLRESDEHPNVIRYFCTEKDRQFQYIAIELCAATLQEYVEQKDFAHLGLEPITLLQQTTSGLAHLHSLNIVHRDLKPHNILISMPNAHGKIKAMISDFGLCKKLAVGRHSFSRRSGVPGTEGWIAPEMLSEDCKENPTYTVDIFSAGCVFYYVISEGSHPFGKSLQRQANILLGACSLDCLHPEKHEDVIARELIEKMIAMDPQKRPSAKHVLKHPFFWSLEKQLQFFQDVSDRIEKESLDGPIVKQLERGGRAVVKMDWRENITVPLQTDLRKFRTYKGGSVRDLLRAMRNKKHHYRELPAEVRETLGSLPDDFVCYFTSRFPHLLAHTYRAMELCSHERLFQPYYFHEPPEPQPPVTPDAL
UniProt P11362, whole entry, looked up: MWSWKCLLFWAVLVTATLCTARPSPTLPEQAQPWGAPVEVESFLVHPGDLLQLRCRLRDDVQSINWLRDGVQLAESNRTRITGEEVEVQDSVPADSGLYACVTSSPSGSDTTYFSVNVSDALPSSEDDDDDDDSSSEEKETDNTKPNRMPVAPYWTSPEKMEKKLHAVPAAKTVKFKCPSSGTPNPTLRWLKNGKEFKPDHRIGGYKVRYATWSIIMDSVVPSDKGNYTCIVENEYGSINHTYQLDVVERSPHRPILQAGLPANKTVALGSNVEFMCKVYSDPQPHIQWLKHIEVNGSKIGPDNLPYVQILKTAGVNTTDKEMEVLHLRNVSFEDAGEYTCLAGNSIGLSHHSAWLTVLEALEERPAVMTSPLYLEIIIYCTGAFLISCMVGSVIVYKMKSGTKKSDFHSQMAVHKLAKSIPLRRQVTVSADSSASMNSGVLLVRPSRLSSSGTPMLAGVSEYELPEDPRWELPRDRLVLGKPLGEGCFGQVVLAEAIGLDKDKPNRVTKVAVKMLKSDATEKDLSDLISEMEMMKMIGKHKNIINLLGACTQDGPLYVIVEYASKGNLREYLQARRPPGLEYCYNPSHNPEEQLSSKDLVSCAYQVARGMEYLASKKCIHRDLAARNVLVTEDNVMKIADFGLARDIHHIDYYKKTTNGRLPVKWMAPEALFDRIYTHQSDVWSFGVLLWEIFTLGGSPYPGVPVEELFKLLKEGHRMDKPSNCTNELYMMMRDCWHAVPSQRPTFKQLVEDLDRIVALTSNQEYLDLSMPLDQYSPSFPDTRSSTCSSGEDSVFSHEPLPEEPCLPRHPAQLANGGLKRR
UniProt P21802, whole entry, looked up: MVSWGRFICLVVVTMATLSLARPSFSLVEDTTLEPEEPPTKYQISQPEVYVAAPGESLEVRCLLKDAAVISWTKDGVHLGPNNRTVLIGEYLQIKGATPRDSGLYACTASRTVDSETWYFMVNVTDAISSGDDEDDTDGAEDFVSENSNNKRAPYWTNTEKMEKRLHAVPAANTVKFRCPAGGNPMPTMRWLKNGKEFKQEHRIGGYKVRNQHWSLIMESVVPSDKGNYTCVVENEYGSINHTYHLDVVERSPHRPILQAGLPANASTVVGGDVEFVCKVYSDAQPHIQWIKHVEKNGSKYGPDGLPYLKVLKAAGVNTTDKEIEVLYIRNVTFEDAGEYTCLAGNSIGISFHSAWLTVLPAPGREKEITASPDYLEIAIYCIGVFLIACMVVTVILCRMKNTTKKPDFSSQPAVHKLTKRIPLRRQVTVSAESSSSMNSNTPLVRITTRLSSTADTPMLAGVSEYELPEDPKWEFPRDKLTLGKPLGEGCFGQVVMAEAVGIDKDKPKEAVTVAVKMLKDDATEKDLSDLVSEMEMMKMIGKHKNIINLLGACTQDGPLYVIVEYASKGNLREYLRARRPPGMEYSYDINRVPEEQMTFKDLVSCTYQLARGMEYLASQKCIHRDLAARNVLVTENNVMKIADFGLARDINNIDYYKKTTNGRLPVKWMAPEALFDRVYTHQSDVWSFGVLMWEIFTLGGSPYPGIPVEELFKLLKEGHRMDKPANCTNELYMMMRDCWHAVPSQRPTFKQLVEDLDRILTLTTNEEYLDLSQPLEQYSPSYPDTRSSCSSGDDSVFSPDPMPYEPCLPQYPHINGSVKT
UniProt P22607, whole entry, looked up: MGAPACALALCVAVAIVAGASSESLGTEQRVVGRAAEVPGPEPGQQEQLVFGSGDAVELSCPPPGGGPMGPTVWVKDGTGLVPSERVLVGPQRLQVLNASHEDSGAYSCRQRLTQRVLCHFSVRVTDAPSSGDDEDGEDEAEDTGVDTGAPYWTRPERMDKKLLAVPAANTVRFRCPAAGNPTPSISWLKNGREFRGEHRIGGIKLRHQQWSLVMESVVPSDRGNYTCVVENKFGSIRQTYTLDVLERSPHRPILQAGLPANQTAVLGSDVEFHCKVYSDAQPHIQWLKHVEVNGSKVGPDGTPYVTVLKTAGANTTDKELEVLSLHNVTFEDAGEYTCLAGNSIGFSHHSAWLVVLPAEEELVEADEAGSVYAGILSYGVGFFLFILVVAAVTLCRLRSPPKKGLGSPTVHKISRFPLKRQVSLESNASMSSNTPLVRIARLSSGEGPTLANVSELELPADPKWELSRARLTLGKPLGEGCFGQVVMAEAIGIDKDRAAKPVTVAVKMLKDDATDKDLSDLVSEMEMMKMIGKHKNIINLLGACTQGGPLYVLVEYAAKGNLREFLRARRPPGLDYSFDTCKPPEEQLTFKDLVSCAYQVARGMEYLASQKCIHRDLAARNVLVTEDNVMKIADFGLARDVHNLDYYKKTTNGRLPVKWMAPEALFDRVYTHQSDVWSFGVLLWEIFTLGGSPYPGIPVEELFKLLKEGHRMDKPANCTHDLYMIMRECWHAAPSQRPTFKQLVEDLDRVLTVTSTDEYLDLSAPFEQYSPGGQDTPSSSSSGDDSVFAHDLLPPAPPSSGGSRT
UniProt P06241, whole entry, looked up: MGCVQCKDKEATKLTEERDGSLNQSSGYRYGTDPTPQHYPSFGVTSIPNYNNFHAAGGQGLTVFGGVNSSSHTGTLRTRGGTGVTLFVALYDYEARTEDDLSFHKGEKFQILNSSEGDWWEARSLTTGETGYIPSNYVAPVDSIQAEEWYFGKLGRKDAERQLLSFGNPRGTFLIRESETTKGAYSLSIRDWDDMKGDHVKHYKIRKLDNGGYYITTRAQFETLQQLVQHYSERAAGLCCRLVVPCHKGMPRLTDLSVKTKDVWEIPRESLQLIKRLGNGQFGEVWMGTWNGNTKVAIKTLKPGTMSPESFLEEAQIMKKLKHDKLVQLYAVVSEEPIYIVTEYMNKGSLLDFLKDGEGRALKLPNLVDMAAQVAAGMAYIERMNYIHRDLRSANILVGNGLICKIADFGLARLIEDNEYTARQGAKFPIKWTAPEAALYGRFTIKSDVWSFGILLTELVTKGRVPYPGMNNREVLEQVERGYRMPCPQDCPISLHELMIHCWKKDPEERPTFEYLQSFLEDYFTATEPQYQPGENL
UniProt P49840: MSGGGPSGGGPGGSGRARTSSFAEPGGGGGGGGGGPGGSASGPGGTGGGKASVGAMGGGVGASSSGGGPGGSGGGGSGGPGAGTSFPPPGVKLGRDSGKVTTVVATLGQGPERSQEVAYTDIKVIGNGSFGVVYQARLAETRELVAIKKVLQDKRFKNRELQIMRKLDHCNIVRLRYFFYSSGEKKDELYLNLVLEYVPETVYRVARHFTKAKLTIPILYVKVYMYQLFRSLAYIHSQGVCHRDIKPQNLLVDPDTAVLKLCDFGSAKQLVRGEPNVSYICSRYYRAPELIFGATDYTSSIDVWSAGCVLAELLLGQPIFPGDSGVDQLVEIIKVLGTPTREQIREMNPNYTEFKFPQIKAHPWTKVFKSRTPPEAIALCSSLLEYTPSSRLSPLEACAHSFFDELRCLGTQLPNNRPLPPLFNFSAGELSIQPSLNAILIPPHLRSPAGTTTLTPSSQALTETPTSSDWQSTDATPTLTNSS
UniProt P14616: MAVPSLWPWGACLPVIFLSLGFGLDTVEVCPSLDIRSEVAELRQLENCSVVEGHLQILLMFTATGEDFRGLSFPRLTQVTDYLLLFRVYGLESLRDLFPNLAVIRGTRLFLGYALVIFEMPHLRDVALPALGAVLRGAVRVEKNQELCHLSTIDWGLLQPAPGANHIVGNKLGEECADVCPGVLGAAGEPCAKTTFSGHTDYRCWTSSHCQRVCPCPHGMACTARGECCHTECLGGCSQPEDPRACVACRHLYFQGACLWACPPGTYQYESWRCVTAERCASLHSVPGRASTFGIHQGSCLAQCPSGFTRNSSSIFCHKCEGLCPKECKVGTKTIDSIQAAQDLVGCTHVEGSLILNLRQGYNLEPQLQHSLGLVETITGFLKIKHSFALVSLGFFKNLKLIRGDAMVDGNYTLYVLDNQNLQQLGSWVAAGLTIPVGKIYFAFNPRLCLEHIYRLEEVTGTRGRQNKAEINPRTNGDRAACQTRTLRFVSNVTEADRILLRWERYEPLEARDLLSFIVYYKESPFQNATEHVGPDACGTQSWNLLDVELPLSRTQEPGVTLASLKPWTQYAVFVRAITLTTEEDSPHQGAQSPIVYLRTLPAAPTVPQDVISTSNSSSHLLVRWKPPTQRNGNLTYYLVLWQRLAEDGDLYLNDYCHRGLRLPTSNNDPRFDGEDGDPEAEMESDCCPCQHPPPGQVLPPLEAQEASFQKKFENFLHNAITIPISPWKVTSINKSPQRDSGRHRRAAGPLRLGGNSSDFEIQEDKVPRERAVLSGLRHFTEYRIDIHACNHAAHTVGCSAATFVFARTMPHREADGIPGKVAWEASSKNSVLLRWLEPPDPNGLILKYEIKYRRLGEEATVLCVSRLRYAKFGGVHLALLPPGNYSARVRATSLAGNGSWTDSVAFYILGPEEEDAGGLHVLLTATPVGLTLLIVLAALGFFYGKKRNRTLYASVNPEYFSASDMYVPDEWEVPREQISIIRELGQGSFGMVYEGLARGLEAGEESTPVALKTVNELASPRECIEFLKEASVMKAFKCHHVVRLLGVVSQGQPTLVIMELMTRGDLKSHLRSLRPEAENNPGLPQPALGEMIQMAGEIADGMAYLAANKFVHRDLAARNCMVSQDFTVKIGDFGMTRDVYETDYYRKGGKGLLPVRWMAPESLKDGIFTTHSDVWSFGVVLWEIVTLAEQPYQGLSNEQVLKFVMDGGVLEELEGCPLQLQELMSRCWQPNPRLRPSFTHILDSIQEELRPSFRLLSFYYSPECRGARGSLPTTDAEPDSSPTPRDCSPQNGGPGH

Columns and labels:
Test in all cases: kinase-Nluc reporter destabilization hit call (1 = scored as downregulated) (binary); higher = compound decreases kinase abundance
Conditions in all cases: K562; 2-18 h
ERN1 = ERN1 (UniProt O75460)
FGFR1 = FGFR1 (UniProt P11362)
FGFR2 = FGFR2 (UniProt P21802)
FGFR3 = FGFR3 (UniProt P22607)
FGR = FGR (UniProt P09769)
FLT3 = FLT3 (UniProt P36888)
FYN = FYN (UniProt P06241)
GSK3A = GSK3A (UniProt P49840)
HER2 = HER2 (UniProt P04626)
INSRR = INSRR (UniProt P14616)

SMILES | kinase-Nluc reporter destabilization hit call (ERN1) | kinase-Nluc reporter destabilization hit call (FGFR1) | kinase-Nluc reporter destabilization hit call (FGFR2) | kinase-Nluc reporter destabilization hit call (FGFR3) | kinase-Nluc reporter destabilization hit call (FGR) | kinase-Nluc reporter destabilization hit call (FLT3) | kinase-Nluc reporter destabilization hit call (FYN) | kinase-Nluc reporter destabilization hit call (GSK3A) | kinase-Nluc reporter destabilization hit call (HER2) | kinase-Nluc reporter destabilization hit call (INSRR)
CCN1CCC(n2cc(CNc3cc(Cl)c4ncc(C#N)c(Nc5ccc(F)c(Cl)c5)c4c3)nn2)CC1 [Cot inhibitor-2] (2.5 µM) | inactive: 0 | inactive: 0 | inactive: 0 | inactive: 0 | inactive: 0 | inactive: 0 | inactive: 0 | inactive: 0 | inactive: 0 | inactive: 0
COc1ccc(OC)c(C2C(C#N)=C(N)Oc3n[nH]c(-c4ccc5ccccc5c4)c32)c1 (stereo not given) (10 µM) | inactive: 0 | inactive: 0 | inactive: 0 | inactive: 0 | inactive: 0 | inactive: 0 | inactive: 0 | inactive: 0 | inactive: 0 | inactive: 0
C[C@H](c1ccnc(Nc2nc3ccc(-c4cc(N(C)C)ncn4)cc3[nH]2)c1)N1CCN(C(=O)CC(F)(F)F)CC1 (2.5 µM) | inactive: 0 | inactive: 0 | inactive: 0 | inactive: 0 | inactive: 0 | inactive: 0 | inactive: 0 | inactive: 0 | inactive: 0 | inactive: 0
C[C@]1(O)CCN(c2nc(N3C[C@H](O)[C@@H](O)C3)cc(C(F)(F)F)c2C#N)C1 (10 µM) | inactive: 0 | inactive: 0 | inactive: 0 | inactive: 0 | inactive: 0 | inactive: 0 | inactive: 0 | inactive: 0 | inactive: 0 | inactive: 0
Cc1c(-c2c(F)cc(C(N)=O)c3[nH]c4c(c23)CC[C@H](C(C)(C)O)C4)cccc1-n1c(=O)c2cccc(F)c2n(C)c1=O (2.5 µM) | inactive: 0 | inactive: 0 | inactive: 0 | inactive: 0 | inactive: 0 | inactive: 0 | inactive: 0 | inactive: 0 | inactive: 0 | inactive: 0
FC(F)c1nc2ccccc2n1-c1nc(N2CCOCC2)nc(N2CCOCC2)n1 (2 µM) | inactive: 0 | inactive: 0 | inactive: 0 | inactive: 0 | inactive: 0 | inactive: 0 | inactive: 0 | inactive: 0 | inactive: 0 | inactive: 0
Cc1cc(CN2CCN(c3c(Br)cnc4nc(-c5ccc(N6CCN(C)CC6)cc5)[nH]c34)CC2)no1 (2.5 µM) | inactive: 0 | inactive: 0 | inactive: 0 | inactive: 0 | inactive: 0 | inactive: 0 | inactive: 0 | inactive: 0 | inactive: 0 | inactive: 0
C[C@@H]1CCN(C(=O)CC#N)C[C@@H]1N(C)c1ncnc2[nH]ccc12 [Tofacitinib] (10 µM) | inactive: 0 | inactive: 0 | inactive: 0 | inactive: 0 | inactive: 0 | inactive: 0 | inactive: 0 | inactive: 0 | inactive: 0 | inactive: 0
C=CC(=O)Nc1ccc(CN2C(=O)N(c3cc(OC)cc(OC)c3)Cc3cnc(Nc4ccc(N5CCN(C)CC5)cc4)nc32)cc1 (2.5 µM) | inactive: 0 | inactive: 0 | inactive: 0 | inactive: 0 | inactive: 0 | inactive: 0 | inactive: 0 | inactive: 0 | active: 1 | inactive: 0
CN(CC(=O)N(Cc1ccc(C2CCCCC2)cc1)c1ccc(C(=O)NO)cc1)S(=O)(=O)c1c(F)c(F)c(F)c(F)c1F (2.5 µM) | inactive: 0 | inactive: 0 | inactive: 0 | inactive: 0 | inactive: 0 | inactive: 0 | inactive: 0 | inactive: 0 | inactive: 0 | inactive: 0
Nc1nc2ccc(Cl)cc2c2nc(-c3ccco3)nn12 (10 µM) | inactive: 0 | inactive: 0 | inactive: 0 | inactive: 0 | inactive: 0 | inactive: 0 | inactive: 0 | inactive: 0 | inactive: 0 | inactive: 0
CNC(=O)c1ccc(C)c(-n2c(C)cc(OCc3ccc(F)cc3F)c(Br)c2=O)c1 (10 µM) | inactive: 0 | inactive: 0 | inactive: 0 | inactive: 0 | inactive: 0 | inactive: 0 | inactive: 0 | inactive: 0 | inactive: 0 | inactive: 0
Cc1[nH]c(/C=C2\C(=O)Nc3ccccc32)c(C)c1CCC(=O)O [(Z)-Orantinib] (10 µM) | inactive: 0 | inactive: 0 | inactive: 0 | inactive: 0 | inactive: 0 | inactive: 0 | inactive: 0 | inactive: 0 | inactive: 0 | inactive: 0
COc1cc(Nc2ncc(F)c(Nc3ccc4c(n3)NC(=O)C(C)(C)O4)n2)cc(OC)c1OC (10 µM) | inactive: 0 | inactive: 0 |  | inactive: 0 | inactive: 0 | inactive: 0 |  | inactive: 0 | inactive: 0 | inactive: 0
CCOc1ccc2cc(-c3nn(CC4CCN(C)CC4)c4ncnc(N)c34)ccc2n1 (10 µM) | inactive: 0 | inactive: 0 | inactive: 0 | inactive: 0 | inactive: 0 | inactive: 0 | inactive: 0 | inactive: 0 | inactive: 0 | inactive: 0
FC(F)(c1ccc2ncccc2c1)c1nnc2ccc(-c3ccncc3)nn12 (10 µM) | inactive: 0 | inactive: 0 | inactive: 0 | inactive: 0 | inactive: 0 | inactive: 0 | inactive: 0 | inactive: 0 | inactive: 0 | inactive: 0
Cc1c(NC(=O)c2cccn(-c3ccc(F)cc3)c2=O)ccc(Oc2ccnc(NC(=O)C3CC3)c2)c1C (2 µM) | inactive: 0 | inactive: 0 | inactive: 0 | inactive: 0 | inactive: 0 | inactive: 0 | inactive: 0 | inactive: 0 | inactive: 0 | inactive: 0

SMILES | kinase-Nluc reporter destabilization hit call (ERN1) | kinase-Nluc reporter destabilization hit call (FGFR1) | kinase-Nluc reporter destabilization hit call (FGFR2) | kinase-Nluc reporter destabilization hit call (FGFR3) | kinase-Nluc reporter destabilization hit call (FGR) | kinase-Nluc reporter destabilization hit call (FLT3) | kinase-Nluc reporter destabilization hit call (FYN) | kinase-Nluc reporter destabilization hit call (GSK3A) | kinase-Nluc reporter destabilization hit call (HER2) | kinase-Nluc reporter destabilization hit call (INSRR)
COc1cc2c(N3CCN(C(=O)Nc4ccc(OC(C)C)cc4)CC3)ncnc2cc1OCCCN1CCCCC1 [Tandutinib (hydrochloride)] (10 µM) | inactive: 0 | inactive: 0 | inactive: 0 | inactive: 0 | inactive: 0 |  | inactive: 0 | inactive: 0 | inactive: 0 | inactive: 0
Cc1ccccc1-n1c([C@H](C)Nc2nc(N)nc3nc[nH]c23)nc2cccc(C)c2c1=O [CAL-130 (Hydrochloride)] (10 µM) | inactive: 0 | inactive: 0 | inactive: 0 | inactive: 0 | inactive: 0 | inactive: 0 | inactive: 0 | inactive: 0 | inactive: 0 | inactive: 0
CCN1CCN(Cc2ccc(Nc3ncc(F)c(-c4cc(F)c5nc(C)n(C(C)C)c5c4)n3)nc2)CC1 [Abemaciclib] (2 µM) | inactive: 0 | inactive: 0 | inactive: 0 | inactive: 0 | inactive: 0 | inactive: 0 | inactive: 0 | inactive: 0 | inactive: 0 | inactive: 0
COc1cc(Nc2ncc(F)c(Nc3ccc4c(n3)NC(=O)C(C)(C)O4)n2)cc(OC)c1OC [R406 (free base)] (10 µM) | inactive: 0 | inactive: 0 |  | inactive: 0 | inactive: 0 | inactive: 0 |  | inactive: 0 | inactive: 0 | inactive: 0
CCc1cc2c(cc1N1CCC(N3CCOCC3)CC1)C(C)(C)c1[nH]c3cc(C#N)ccc3c1C2=O [Alectinib (Hydrochloride)] (2 µM) | inactive: 0 | inactive: 0 | inactive: 0 | inactive: 0 | inactive: 0 | inactive: 0 | inactive: 0 | inactive: 0 | inactive: 0 | inactive: 0
CC(C)(C)c1nc(-c2cccc(NS(=O)(=O)c3c(F)cccc3F)c2F)c(-c2ccnc(N)n2)s1 [Dabrafenib] (2.5 µM) | inactive: 0 | inactive: 0 | inactive: 0 | inactive: 0 | inactive: 0 | inactive: 0 | inactive: 0 | inactive: 0 | inactive: 0 | inactive: 0
CCCS(=O)(=O)Nc1ccc(F)c(C(=O)c2c[nH]c3ncc(-c4ccc(Cl)cc4)cc23)c1F [Vemurafenib] (10 µM) | inactive: 0 | inactive: 0 | inactive: 0 | inactive: 0 | inactive: 0 | inactive: 0 | inactive: 0 | inactive: 0 | inactive: 0 | inactive: 0
COc1cc(Nc2ncc(F)c(Nc3ccc4c(n3)N(COP(=O)(O)O)C(=O)C(C)(C)O4)n2)cc(OC)c1OC [Fostamatinib Disodium] (10 µM) | inactive: 0 | inactive: 0 | inactive: 0 | inactive: 0 | inactive: 0 | inactive: 0 | inactive: 0 | inactive: 0 | inactive: 0 | inactive: 0
Cc1nc2sccn2c(=O)c1CCN1CCC(=C(c2ccccc2)c2ccc(F)cc2)CC1 (10 µM) | inactive: 0 | inactive: 0 | inactive: 0 | inactive: 0 | inactive: 0 | inactive: 0 | inactive: 0 | inactive: 0 | inactive: 0 | inactive: 0
O=C(Nc1ccc(CN2CCOCC2)cc1)c1ccc(-c2cccc(Cl)c2)o1 (10 µM) | inactive: 0 | inactive: 0 | inactive: 0 | inactive: 0 | inactive: 0 | inactive: 0 | inactive: 0 | inactive: 0 | inactive: 0 | inactive: 0
CN(C)CCCOc1ccc(-c2ccc3ncc4c(c3c2)n(C2CCOCC2)c(=O)n4C)cn1 (2 µM) | inactive: 0 | inactive: 0 | inactive: 0 | inactive: 0 | inactive: 0 | inactive: 0 | inactive: 0 | inactive: 0 | inactive: 0 | inactive: 0
Nc1cc(C(F)(F)F)c(-c2cc(N3CCOCC3)nc(N3CCOCC3)n2)cn1 [Buparlisib (Hydrochloride)] (2.5 µM) | inactive: 0 | inactive: 0 | inactive: 0 | inactive: 0 | inactive: 0 | inactive: 0 | inactive: 0 | inactive: 0 | inactive: 0 | inactive: 0
Cc1ccc2cc(-c3c(C)ccc(C(=O)c4c(-c5ccccc5)n(C)n(-c5ccccc5)c4=O)c3N)ccc2n1 (2.5 µM) | inactive: 0 | inactive: 0 | inactive: 0 | inactive: 0 | inactive: 0 | inactive: 0 | inactive: 0 | inactive: 0 | inactive: 0 | inactive: 0
O=c1[nH]c(=O)n([C@@H]2O[C@H](CO)[C@@H](O)[C@@H]2O)cc1/C=C/Br [Sorivudine] (10 µM) | inactive: 0 | inactive: 0 | inactive: 0 | inactive: 0 | inactive: 0 | inactive: 0 | inactive: 0 | inactive: 0 | inactive: 0 | inactive: 0
N#CCC1CCN(c2nc(Nc3ccc(N4CCC(O)CC4)cc3)c3c(=O)[nH]ncc3n2)CC1 [Gusacitinib] (10 µM) | inactive: 0 | inactive: 0 | inactive: 0 | inactive: 0 | inactive: 0 | inactive: 0 | inactive: 0 | inactive: 0 | inactive: 0 | inactive: 0
CCC(C)N1c2ccccc2C(=O)N(C)c2cnc(Nc3ccc(C(=O)N4CCC(N5CCN(C)CC5)CC4)cc3OC)nc21 (stereo not given) (2.5 µM) | inactive: 0 | inactive: 0 | inactive: 0 | inactive: 0 | inactive: 0 | inactive: 0 | inactive: 0 | inactive: 0 | inactive: 0 | inactive: 0
